The campaign covered roughly 59,000 compounds. About 35 (0.06%) were called active. The shares of active, inactive and inconclusive entries below differ from those in the screen. Rule as the data show it: active = max dye-equivalent concentration above about 10 nM; inconclusive = between about 1.1 nM and that limit; inactive = weaker than that.
assay: qHTS Assay for Spectroscopic Profiling in Texas Red Spectral Region; details: Compound fluorescence, Texas Red channel, 547/618 nm; active compounds read high
Procedure, shortened: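 Fluorescence at ex 547/em 618 nm, normalized against an on-plate Texas Red standard series to give dye-equivalent concentration per compound concentration. Buffer 100 mM Tris, pH 8.0; 15 min RT incubation before CCD imaging.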

Row | SMILES | max dye-equivalent concentration
1 | Cc1ccc(C)c(S(=O)(=O)C(C#N)c2nc3ccccc3nc2N2CCCC2)c1 (stereo unspecified) | inactive
2 | CCNC(=O)C1CC(=O)N(Cc2ccc3c(c2)OCO3)C(=Nc2ccc(OCC)cc2)S1 (stereo unspecified) | inconclusive: 1.1 nM
3 | Cc1ccccc1C(=O)Nc1ccc2c(c1)OCO2 | inconclusive: 1.2 nM
4 | CCOc1cccc(C(=O)Nc2ccc(N3CCN(S(C)(=O)=O)CC3)cc2)c1 | inconclusive: 1.1 nM
5 | COC(=O)c1c(NS(C)(=O)=O)sc2c1CCCC2 | inconclusive: 1.2 nM
6 | C/C(N)=C(/C#N)C(=O)COc1ncnc2ccc(Br)cc12 | inconclusive: 2.2 nM
7 | COC(=O)CN(c1ccc(OC)c(OC)c1)S(C)(=O)=O | inconclusive: 1.4 nM
8 | COc1cc2[nH]c(=S)n(CCN3CCCCC3C)c(=O)c2cc1OC (stereo unspecified) | inconclusive: 1.2 nM
9 | O=C(Nc1ccc2c(c1)OCCO2)c1ccc(S(=O)(=O)N2CCCCC2)cc1 | inconclusive: 1.4 nM
10 | Cc1cc(C)nc(NS(=O)(=O)c2ccc(-n3cccc3)cc2)n1 | inconclusive: 1.2 nM
11 | O=C(O)C1CSC2c3ccccc3C(=O)N12 (stereo unspecified) | inconclusive: 1.3 nM
12 | O=S(=O)(Cc1ccc(Cl)cc1)Nc1ccc2c(c1)OCO2 | inconclusive: 1.5 nM
13 | COc1ccc2[nH]cc(CCNc3ccnc(-c4ccccc4Cl)n3)c2c1 | inactive
14 | CCOc1ccc(-c2[nH]ncc2Oc2cccc(OC)c2)c(O)c1 | inconclusive: 1.1 nM
15 | COc1ccc(NC(=O)N2CCC(c3nc(-c4cccs4)no3)CC2)cc1 | inconclusive: 1.4 nM
16 | Cc1cc(CN2C(=O)c3ccccc3C2=O)no1 | inconclusive: 2.8 nM
17 | CCc1nc2ccccc2c(C(=O)OC2CCOC2=O)c1C (stereo unspecified) | inconclusive: 1.5 nM
18 | CN1CCC[C@H](C(=O)OCC(=O)[C@]2(O)CC[C@@H]3[C@H]4CCC5=CC(=O)CC[C@@]5(C)[C@H]4[C@@H](O)C[C@]32C)C1 | inactive
19 | COC(=O)c1ccc(CNC(=O)CSc2nnc(COc3ccccc3)n2C)o1 | inconclusive: 2 nM
20 | COC(=O)CCc1c(C)[nH]c(C(=O)OCc2ccccc2)c1C | inconclusive: 1.1 nM
21 | Cc1nn(-c2ccccc2)c2[nH]c(=O)c(CNCc3ccc4c(c3)OCO4)cc12 | inconclusive: 2.2 nM
22 | O=C(O)[C@H]([C@H]1NCCS1)N1C(=O)c2ccccc2C1=O | inactive

Random excerpt: four compounds from above.
Row | SMILES | max dye-equivalent concentration
8 | COc1cc2[nH]c(=S)n(CCN3CCCCC3C)c(=O)c2cc1OC (stereo unspecified) | inconclusive: 1.2 nM
22 | O=C(O)[C@H]([C@H]1NCCS1)N1C(=O)c2ccccc2C1=O | inactive
5 | COC(=O)c1c(NS(C)(=O)=O)sc2c1CCCC2 | inconclusive: 1.2 nM
13 | COc1ccc2[nH]cc(CCNc3ccnc(-c4ccccc4Cl)n3)c2c1 | inactive

Continuation.

Row | SMILES | max dye-equivalent concentration
23 | Nc1ncnc2c1ncn2[C@H]1O[C@@H](C(=O)O)[C@@H](O)[C@H]1O | inactive
24 | O=S(=O)(NCC(c1cccnc1)N1CCN(c2ccccc2)CC1)c1cc(F)ccc1F (stereo unspecified) | inconclusive: 1.8 nM
25 | COc1cccc(C(=O)N2CCCC(c3nc(-c4cccs4)no3)C2)c1 (stereo unspecified) | inconclusive: 1.5 nM
26 | O=C(Nc1ccc(Cl)cc1)Nc1ccc(N2CCOCC2)cc1 | inconclusive: 1.4 nM
27 | C[N@@+]1(CC[N@@+]2(C)CCC[C@H]2c2cccnc2)CCC[C@@H]1c1cccnc1 | inactive
28 | c1ccc2c(N3CCOCC3)nc(-c3ccoc3)nc2c1 | inactive
29 | CCCS(=O)(=O)N1CCC(C(=O)NCCCOCC)CC1 | inconclusive: 1.4 nM
30 | Cc1cc(C(=O)CSc2nnc(-c3ccco3)o2)c(C)n1CC1COc2ccccc2O1 (stereo unspecified) | inconclusive: 1.9 nM
31 | CS(=O)(=O)N(CC(=O)Nc1ccc2c(c1)OCCO2)c1ccc2c(c1)OCO2 | inconclusive: 1.8 nM
32 | O=C1CCCC/C1=C\Nc1ccc(O)cc1 | inconclusive: 1.4 nM
33 | O=C(CCCCn1c(=O)c2ccccc2n(CC(=O)NC2CCCC2)c1=O)NCc1ccco1 | inconclusive: 1.5 nM
34 | O=c1c(-c2cccc(Cl)c2)nc2cncnc2n1Cc1ccccc1Cl | inconclusive: 1.4 nM
35 | CCc1nc(-c2ccccc2O)n(-c2ccccc2)n1 | inconclusive: 1.3 nM
36 | CC1(C)CC(OC(=O)c2ccco2)CC(C)(C)N1O | inconclusive: 1.1 nM
37 | COc1ccc(C(=O)N2CCC3(CCCN(c4cccc(-c5ccccc5)c4)C3)CC2)cc1 | inactive
38 | COc1ccc(Cn2c(=O)oc3ccc(C)cc32)cc1OC | inconclusive: 1.4 nM
39 | CC(C)NC(=O)C(C)n1cccc1C(=O)c1ccccc1 (stereo unspecified) | inconclusive: 1.9 nM
40 | COc1ccc(NC(=O)C2CC(=O)N(C)C(=Nc3ccc4c(c3)OCO4)S2)cc1 (stereo unspecified) | inconclusive: 1.4 nM
41 | c1nc(N2CCC3(CC2)OCCO3)c2[nH]cnc2n1 | inconclusive: 1.1 nM
42 | COc1ccc(C2CC(=O)Nc3ccccc3S2(=O)=O)cc1OC (stereo unspecified) | inconclusive: 1.4 nM
43 | COC(=O)c1nnn(-c2nc(N3CCCCC3)nc(N3CCCCC3)n2)c1C | inconclusive: 1.5 nM
44 | CN(C)CC(C)(C)NS(=O)(=O)c1ccc(Cl)cc1 | inconclusive: 2.8 nM

Row | SMILES | max dye-equivalent concentration
45 | NNS(=O)(=O)c1cc(C(=O)O)cc(C(=O)O)c1 | inactive
46 | O=c1cc(CSc2nnc(COc3ccccc3Cl)o2)nc2sccn12 | inconclusive: 1.5 nM
47 | COc1ccc(S(=O)(=O)N(CCCN2CCCC2=O)Cc2cc3c(C)ccc(C)c3[nH]c2=O)cc1 | inconclusive: 1.2 nM
48 | O=C(O)c1[nH]c2ccc(Cl)cc2c1CC(=O)N1CCN(c2ccccc2)CC1 | inconclusive: 1.6 nM
49 | O=C1c2ccccc2C(=O)N1Cc1nc2ccccc2c(=O)n1CCN1CCOCC1 | inconclusive: 1.5 nM
50 | CC(NC(=O)c1ccccc1)(C(=O)O)C(=O)O | inactive
51 | Cc1cc2ccccc2n2c(SCC(=O)N3CCN(C(=O)c4ccco4)CC3)nnc12 | inconclusive: 1.3 nM
52 | CCc1c(C(=O)NCc2ccc3c(c2)OCO3)[nH]c(C)c1C(C)=O | inconclusive: 1.6 nM
53 | Cc1cc(=O)oc2cc(OC(C)C(=O)N3CCCc4ccccc43)ccc12 (stereo unspecified) | inconclusive: 1.5 nM
54 | CCOC(=O)c1sc(NC(=O)CSc2n[nH]c(-c3ccccc3)n2)c(C#N)c1C | inactive
55 | Cc1cc(=O)oc2c(CN3CCC(C)CC3)c(O)c(Cl)cc12 | inactive
56 | Cc1ccc(C(C)NC(=O)c2cc(C)oc2C)cc1 (stereo unspecified) | inconclusive: 1.2 nM
57 | Cc1nn(Cc2ccc(Cl)cc2)c(C)c1NC(=O)c1noc2c1CCCCC2 | inconclusive: 1.3 nM
58 | CCOC(=O)C1CCN(c2cc(C)nc3cc(-c4cccc(F)c4)nn23)CC1 | inconclusive: 1.3 nM
59 | O=C(NS(=O)(=O)c1ccccc1)c1ccccc1O | inconclusive: 1.2 nM
60 | CC1(C)CC(=O)C2=C(C1)Oc1ncn(CCCO)c(=N)c1C2c1ccccc1 (stereo unspecified) | inconclusive: 1.2 nM
61 | CCCCN(C)C(=O)C1CCN(CCCc2ccccc2)CC1 | inconclusive: 1.4 nM
62 | COCCn1c(=O)c(-c2cccs2)nc2cnc(Nc3ccccc3)nc21 | inactive
63 | C[C@@]12C[C@H](O)[C@@H]3[C@H](CCC4=CC(=O)CC[C@]43C)[C@H]1CC[C@@H]2c1csc(-c2ccccc2)n1 | inactive
64 | COc1ccc2oc(C(=O)OCC(=O)c3ccc4c(c3)OCCO4)c(C)c2c1 | inconclusive: 2.3 nM
65 | CC1CCCN(CCCNC(=O)CCn2nc(-c3ccccc3)ccc2=O)C1 (stereo unspecified) | inconclusive: 2 nM
66 | COC(=O)c1ccccc1NC(=O)COC(=O)c1ccc(C)c(NC(=O)c2ccco2)c1 | inconclusive: 1.8 nM

Part of the list above, tab-delimited.
Row	SMILES	max dye-equivalent concentration
56	Cc1ccc(C(C)NC(=O)c2cc(C)oc2C)cc1 (stereo unspecified)	inconclusive: 1.2 nM
57	Cc1nn(Cc2ccc(Cl)cc2)c(C)c1NC(=O)c1noc2c1CCCCC2	inconclusive: 1.3 nM
58	CCOC(=O)C1CCN(c2cc(C)nc3cc(-c4cccc(F)c4)nn23)CC1	inconclusive: 1.3 nM

Following part.

Row | SMILES | max dye-equivalent concentration
67 | O=C(CN(CC1CCCO1)C(=O)CCC(=O)Nc1nccs1)NCC1CCCO1 (stereo unspecified) | inconclusive: 1.5 nM
68 | COc1ccc(CNC(=O)Cn2nc(-c3ccc4c(c3)OCCO4)ccc2=O)cc1 | inconclusive: 1.3 nM
69 | CN(C)CCCNC(=O)Cc1ccc(Br)cc1 | inconclusive: 1.6 nM
70 | CCOc1ccc2[nH]c(=O)c(CN(CCO)C(=O)c3ccc(F)cc3)cc2c1 | inconclusive: 1.6 nM
71 | COc1ccc(-c2nn(-c3ccccc3)cc2C(=O)N2CCOCC2)cc1 | inconclusive: 1.4 nM
72 | CCc1nc(SC)[nH]c(=O)c1C | inconclusive: 1.4 nM
73 | CN(CCC#N)C(=O)c1ccc(CNS(=O)(=O)c2ccc(F)cc2)cc1 | inconclusive: 1.6 nM
74 | N#CC(C(=O)NCCc1ccccc1)c1nc2ccccc2nc1N1CCCCC1 (stereo unspecified) | inactive
75 | CCC(=Nc1ccc(N)cc1)C1=C(O)C(C(=O)OC)C(C)(C)CC1=O (stereo unspecified) | inconclusive: 1.6 nM
76 | c1ccc(C2Nc3ccccc3-c3nc4ccccc4n32)nc1 (stereo unspecified) | inconclusive: 1.5 nM
77 | COc1ccc(C(=O)N2CCC3(CCCN(Cc4ccccc4)C3)CC2)cc1 | inactive
78 | O=C(NCCN1CCOCC1)Nc1ccc(Cl)cc1 | inconclusive: 1.1 nM
79 | Cc1noc(C)c1-c1nc(N(C)Cc2ccco2)c2ccccc2n1 | inconclusive: 1.3 nM
80 | CCCCn1c(N)c(N(CCC(C)C)C(=O)COC(=O)c2ccco2)c(=O)[nH]c1=O | inconclusive: 1.1 nM
81 | Cn1c(=O)c(-c2ccc(Cl)cc2)nc2cnc(N3CCNCC3)nc21 | inconclusive: 1.1 nM
82 | Cc1cc(NC(=O)COC(=O)C(Nc2ccc(C(F)(F)F)cc2Cl)C(C)C)no1 (stereo unspecified) | inconclusive: 1.7 nM
83 | Cn1c(SCCS(=O)(=O)c2ccc(Cl)cc2)nnc1-c1ccccc1 | inconclusive: 1.2 nM
84 | CC(C)COC(=O)n1c(=O)oc2cc(S(=O)(=O)N3CCCCC3)ccc21 | inconclusive: 1.5 nM
85 | Cc1cccc(NC(=O)c2ccc(S(=O)(=O)N(C)C)cc2)n1 | inconclusive: 1.3 nM
86 | COc1ccc(C(=O)Cn2c(N3CCOCC3)nc3c2c(=O)n(C)c(=O)n3C)cc1 | inconclusive: 1.4 nM

— PubChem BioAssay AID587 (National Center for Advancing Translational Sciences (NCATS), 2007)
